We go through one substance from paper PMC8533726.

Protein sequences, listed by entry. Tags and fused reporters are not part of them.
UniProt P41231: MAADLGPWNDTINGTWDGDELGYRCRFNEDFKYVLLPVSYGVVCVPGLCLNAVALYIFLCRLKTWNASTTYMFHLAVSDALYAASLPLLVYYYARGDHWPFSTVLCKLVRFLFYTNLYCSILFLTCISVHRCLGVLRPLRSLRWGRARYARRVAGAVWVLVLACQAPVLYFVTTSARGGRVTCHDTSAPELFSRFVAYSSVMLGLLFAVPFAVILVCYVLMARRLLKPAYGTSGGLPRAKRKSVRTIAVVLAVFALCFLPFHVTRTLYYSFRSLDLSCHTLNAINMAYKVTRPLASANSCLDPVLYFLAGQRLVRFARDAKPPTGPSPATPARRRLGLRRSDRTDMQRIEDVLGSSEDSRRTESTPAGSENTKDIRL

No constants are given. Whether binding was seen depends on the method and setting. Some entries that bind do so weakly or less than the wild type.

This test addresses purinergic receptor Y2 (P2Y2) (human (endogenous in AsPC-1)) (UniProt P41231). The test is described as follows: qPAINT (quantitative DNA-PAINT single-molecule super-resolution microscopy); fixed, permeabilised AsPC-1 cells labelled with DNA-coupled anti-P2Y2 antibody; TIRF; DBSCAN clusters of localisations, copy number per cluster from dark times (qi1 0.012 Hz); control cells, cells treated with 100 uM ATP (agonist) or 5 uM AR-C 118925XX (antagonist) for 1 h.

“purinergic receptor Y2 (P2Y2) (from UniProt P41231 1-377)”: the binding result was “binds”.
